Some of the results follow.
Tests used:
Test in all cases: log2 fold change, soluble protein after heating vs DMSO (PISA); higher = thermal stabilisation; K562 lysate, 10 uM; active = over 0.2 and 3.5 SD of the protein, either way, in both replicates (recomputed)
vemurafenib = compound: CCCS(=O)(=O)Nc1ccc(F)c(C(=O)c2c[nH]c3ncc(-c4ccc(Cl)cc4)cc23)c1F [vemurafenib]
How it was run: (§1)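 Log-two fold change in thermal stability relative to solvent controls is reported from duplicates. For each sample, crude K562 extract from dounce-homogenised pellets in PBS pH 7.4 with 1 mM MgCl2, at 1 mg/mL protein, was treated with 10 μM compound for 30 min. Aliquots heated for 3 min across 48°C-58°C were pooled, brought to 0.5% NP-40 at 4°C and cleared at 21,000xg for 90 min. The supernatant was quantified by TMTpro 16plex LC-MS/MS with channel sums equalised.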

Chains of the proteins cited; added tags and fusions are not shown. Lines headed by an entry give the natural chain unless they say otherwise; changes in a name come on top.
UniProt Q3T8J9: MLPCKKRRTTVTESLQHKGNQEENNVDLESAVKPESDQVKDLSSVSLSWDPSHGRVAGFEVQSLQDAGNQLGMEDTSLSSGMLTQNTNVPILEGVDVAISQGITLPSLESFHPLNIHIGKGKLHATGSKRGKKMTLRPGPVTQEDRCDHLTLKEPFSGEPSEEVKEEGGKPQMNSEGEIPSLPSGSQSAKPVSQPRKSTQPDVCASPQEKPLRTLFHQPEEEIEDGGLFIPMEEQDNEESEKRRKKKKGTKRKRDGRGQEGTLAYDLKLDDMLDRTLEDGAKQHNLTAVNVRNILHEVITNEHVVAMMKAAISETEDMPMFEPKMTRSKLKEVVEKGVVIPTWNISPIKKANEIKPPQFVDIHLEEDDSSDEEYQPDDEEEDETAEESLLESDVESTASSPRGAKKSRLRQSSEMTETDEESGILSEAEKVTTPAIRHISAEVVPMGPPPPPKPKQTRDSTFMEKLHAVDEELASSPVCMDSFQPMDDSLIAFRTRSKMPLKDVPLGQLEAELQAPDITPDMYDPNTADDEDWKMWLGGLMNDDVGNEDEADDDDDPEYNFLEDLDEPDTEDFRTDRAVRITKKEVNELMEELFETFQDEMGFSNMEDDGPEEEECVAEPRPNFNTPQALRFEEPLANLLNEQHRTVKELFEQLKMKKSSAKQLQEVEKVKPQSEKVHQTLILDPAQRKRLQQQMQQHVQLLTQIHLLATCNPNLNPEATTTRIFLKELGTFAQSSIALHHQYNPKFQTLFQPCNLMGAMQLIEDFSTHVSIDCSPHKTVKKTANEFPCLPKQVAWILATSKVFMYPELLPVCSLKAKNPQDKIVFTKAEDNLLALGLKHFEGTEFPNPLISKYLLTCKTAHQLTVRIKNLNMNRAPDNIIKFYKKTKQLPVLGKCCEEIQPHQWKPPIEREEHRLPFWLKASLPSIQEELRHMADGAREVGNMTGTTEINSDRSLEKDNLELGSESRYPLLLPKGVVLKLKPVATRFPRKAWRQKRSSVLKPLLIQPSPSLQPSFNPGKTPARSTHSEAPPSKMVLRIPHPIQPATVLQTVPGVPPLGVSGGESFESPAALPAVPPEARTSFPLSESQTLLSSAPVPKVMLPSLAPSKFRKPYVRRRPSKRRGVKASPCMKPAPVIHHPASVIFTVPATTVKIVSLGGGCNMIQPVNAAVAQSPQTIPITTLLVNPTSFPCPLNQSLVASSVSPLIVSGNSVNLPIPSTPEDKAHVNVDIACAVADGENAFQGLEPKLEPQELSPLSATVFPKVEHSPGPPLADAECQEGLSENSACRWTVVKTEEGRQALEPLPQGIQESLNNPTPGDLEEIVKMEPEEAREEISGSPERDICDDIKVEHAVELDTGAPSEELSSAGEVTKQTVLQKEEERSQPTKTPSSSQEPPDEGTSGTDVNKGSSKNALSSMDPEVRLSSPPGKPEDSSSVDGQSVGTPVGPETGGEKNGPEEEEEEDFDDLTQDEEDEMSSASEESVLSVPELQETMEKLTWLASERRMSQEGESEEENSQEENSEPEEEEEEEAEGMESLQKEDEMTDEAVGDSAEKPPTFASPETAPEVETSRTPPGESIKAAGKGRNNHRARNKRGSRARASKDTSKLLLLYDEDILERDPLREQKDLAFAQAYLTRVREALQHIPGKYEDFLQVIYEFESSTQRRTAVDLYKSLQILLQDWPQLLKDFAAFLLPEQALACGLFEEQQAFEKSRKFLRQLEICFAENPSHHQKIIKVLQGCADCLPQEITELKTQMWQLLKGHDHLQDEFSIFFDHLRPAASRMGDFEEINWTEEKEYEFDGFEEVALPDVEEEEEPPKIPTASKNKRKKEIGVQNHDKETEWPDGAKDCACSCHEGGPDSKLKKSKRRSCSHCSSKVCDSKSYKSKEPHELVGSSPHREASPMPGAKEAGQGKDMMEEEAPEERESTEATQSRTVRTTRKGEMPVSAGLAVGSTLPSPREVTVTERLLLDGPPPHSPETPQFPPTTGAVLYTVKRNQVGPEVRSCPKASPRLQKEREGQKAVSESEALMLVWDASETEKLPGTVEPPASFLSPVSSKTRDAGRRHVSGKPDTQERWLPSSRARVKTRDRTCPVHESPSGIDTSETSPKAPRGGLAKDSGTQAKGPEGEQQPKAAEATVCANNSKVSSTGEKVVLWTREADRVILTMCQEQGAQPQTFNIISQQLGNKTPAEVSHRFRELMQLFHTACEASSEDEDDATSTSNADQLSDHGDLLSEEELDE
UniProt O60234, whole entry, looked up: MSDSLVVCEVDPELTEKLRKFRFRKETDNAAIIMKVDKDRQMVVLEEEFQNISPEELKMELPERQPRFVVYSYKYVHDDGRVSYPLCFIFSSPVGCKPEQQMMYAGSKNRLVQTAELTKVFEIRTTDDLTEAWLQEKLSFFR
UniProt Q8N954: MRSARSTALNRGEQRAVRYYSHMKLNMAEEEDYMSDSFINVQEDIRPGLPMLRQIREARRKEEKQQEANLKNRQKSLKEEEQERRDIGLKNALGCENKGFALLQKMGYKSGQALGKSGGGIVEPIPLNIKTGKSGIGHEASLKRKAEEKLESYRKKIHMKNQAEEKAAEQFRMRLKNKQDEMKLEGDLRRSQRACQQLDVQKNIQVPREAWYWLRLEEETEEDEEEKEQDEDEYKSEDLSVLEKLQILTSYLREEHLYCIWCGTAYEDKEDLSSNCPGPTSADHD
UniProt O76003: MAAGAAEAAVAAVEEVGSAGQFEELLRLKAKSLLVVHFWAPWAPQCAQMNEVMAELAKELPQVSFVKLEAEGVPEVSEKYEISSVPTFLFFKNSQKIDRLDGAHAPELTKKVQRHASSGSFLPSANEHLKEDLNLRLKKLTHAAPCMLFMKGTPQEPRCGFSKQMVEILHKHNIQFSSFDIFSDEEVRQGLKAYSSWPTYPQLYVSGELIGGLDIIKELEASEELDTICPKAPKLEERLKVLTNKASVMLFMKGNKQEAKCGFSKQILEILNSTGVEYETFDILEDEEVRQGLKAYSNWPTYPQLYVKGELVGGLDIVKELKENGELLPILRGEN
UniProt Q9NS18: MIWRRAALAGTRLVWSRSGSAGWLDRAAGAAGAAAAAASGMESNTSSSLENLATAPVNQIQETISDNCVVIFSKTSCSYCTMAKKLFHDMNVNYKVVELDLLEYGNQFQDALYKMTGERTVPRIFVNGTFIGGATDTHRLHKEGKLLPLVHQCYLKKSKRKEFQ
UniProt P60983, whole entry, looked up: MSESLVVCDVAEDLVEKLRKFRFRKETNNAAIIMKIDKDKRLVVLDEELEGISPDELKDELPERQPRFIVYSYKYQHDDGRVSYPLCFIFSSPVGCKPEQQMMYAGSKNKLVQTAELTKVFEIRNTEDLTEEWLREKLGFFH
UniProt P50148, whole entry, looked up: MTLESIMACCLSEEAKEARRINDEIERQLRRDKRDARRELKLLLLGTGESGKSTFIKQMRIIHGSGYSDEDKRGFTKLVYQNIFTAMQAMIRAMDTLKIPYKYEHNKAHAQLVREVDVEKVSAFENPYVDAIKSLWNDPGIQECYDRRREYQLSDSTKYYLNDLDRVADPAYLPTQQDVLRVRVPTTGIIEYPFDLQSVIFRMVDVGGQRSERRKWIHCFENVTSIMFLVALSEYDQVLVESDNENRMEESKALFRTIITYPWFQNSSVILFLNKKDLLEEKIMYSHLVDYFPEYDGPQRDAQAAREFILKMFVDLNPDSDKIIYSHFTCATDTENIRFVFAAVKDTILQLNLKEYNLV
UniProt Q9H3C7, whole entry, looked up: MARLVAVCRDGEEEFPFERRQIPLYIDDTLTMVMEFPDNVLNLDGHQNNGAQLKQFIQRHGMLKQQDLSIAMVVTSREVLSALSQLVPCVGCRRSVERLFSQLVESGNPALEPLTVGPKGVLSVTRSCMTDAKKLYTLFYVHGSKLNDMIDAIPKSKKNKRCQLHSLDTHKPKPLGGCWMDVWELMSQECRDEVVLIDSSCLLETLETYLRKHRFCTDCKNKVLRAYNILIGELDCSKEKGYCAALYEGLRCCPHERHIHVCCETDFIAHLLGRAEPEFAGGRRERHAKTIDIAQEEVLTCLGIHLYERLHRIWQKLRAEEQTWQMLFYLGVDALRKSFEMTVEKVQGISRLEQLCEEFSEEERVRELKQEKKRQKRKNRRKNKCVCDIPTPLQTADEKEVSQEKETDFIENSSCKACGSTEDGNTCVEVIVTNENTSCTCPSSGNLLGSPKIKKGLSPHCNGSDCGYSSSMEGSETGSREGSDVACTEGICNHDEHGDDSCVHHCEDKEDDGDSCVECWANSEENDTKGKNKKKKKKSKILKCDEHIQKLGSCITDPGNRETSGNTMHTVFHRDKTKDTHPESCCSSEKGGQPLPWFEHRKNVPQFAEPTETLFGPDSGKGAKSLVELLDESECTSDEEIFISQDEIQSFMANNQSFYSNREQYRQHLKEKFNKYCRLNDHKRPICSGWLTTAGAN
UniProt Q9Y692: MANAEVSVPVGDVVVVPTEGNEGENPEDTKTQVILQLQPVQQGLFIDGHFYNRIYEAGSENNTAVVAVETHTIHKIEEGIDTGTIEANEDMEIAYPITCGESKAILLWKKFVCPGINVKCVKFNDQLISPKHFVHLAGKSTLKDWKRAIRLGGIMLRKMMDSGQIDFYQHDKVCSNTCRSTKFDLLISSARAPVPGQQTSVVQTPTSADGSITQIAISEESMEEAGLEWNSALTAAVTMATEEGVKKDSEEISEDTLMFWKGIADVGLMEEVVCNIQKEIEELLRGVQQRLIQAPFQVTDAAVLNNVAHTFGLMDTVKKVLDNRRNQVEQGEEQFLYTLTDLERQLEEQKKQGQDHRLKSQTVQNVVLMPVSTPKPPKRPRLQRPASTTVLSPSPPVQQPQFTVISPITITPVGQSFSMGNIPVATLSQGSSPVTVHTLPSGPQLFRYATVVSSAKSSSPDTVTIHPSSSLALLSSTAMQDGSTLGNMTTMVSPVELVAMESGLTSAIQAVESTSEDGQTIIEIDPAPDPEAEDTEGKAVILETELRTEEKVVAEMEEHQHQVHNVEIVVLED
UniProt O75496: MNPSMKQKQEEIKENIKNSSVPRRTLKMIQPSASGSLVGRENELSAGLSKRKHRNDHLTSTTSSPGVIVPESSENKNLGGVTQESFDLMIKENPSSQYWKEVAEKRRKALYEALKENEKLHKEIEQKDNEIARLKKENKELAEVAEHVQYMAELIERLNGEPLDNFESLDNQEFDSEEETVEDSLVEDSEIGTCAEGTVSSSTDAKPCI
UniProt P06280: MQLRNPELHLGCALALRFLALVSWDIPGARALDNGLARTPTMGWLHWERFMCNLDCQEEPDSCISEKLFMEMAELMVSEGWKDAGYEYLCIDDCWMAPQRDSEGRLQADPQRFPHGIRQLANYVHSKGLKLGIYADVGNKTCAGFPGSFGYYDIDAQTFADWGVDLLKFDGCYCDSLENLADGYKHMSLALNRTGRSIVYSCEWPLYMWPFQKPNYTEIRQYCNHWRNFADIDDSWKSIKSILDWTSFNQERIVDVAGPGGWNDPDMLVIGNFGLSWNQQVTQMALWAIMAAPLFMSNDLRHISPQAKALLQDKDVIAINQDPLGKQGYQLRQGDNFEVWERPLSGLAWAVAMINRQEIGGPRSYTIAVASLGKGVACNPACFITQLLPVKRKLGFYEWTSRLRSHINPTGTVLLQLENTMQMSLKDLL
UniProt Q9UHW5, whole entry, looked up: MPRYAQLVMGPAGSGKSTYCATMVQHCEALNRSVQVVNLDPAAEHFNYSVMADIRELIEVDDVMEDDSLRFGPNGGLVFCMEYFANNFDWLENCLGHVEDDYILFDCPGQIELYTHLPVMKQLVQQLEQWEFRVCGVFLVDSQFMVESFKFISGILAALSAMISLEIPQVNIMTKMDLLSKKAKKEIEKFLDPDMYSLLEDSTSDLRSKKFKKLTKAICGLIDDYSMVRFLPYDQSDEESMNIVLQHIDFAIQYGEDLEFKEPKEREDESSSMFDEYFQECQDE
UniProt Q9HC44: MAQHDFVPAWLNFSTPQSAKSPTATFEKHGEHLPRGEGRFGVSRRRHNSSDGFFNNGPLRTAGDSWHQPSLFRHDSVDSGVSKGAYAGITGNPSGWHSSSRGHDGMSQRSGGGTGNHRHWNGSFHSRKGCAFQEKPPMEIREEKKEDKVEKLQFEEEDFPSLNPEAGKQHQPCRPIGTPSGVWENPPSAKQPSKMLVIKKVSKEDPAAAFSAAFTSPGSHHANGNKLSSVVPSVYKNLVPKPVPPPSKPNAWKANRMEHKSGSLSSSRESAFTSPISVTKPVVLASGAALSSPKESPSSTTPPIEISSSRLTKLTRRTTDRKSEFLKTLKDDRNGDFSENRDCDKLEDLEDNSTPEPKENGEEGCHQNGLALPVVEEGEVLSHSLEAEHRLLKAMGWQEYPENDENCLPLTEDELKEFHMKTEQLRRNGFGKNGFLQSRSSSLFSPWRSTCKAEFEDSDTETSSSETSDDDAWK
UniProt Q04760: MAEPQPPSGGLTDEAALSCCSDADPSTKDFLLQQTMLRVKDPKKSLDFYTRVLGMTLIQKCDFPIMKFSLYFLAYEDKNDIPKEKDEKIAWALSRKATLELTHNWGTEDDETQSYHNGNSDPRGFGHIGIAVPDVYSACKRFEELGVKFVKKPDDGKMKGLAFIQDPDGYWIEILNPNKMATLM

[1] = compound: CCCS(=O)(=O)Nc1ccc(F)c(C(=O)c2c[nH]c3ncc(Cl)cc23)c1F
How it was run: as §1

barasertib = compound: CCN(CCCOc1ccc2c(Nc3cc(CC(=O)Nc4cccc(F)c4)[nH]n3)ncnc2c1)CCOP(=O)(O)O [barasertib]
How it was run: as §1

[2] = compound: CC[C@@H]1C(=O)N(C)c2cnc(Nc3ccc(C(=O)NC4CCN(C)CC4)cc3OC)nc2N1C1CCCC1
How it was run: as §1

volasertib = compound: CC[C@@H]1C(=O)N(C)c2cnc(Nc3ccc(C(=O)N[C@H]4CC[C@H](N5CCN(CC6CC6)CC5)CC4)cc3OC)nc2N1C(C)C [volasertib]
How it was run: as §1

[3] = compound: CCn1c(C(=O)N(C2CC2)C2CC2)cc2c3c(ncn3C)c(Nc3cc(C)n(C)n3)nc21
How it was run: as §1

[4] = compound: CCn1cc(-c2ccnc3[nH]c(-c4cccc(CN(C)C)c4)cc23)c(-c2ccc(NC(=O)N(C)C)cc2)n1
How it was run: as §1

[5] = compound: CN1CCC(CNc2ccc3ncc(-c4cccc(OC(F)(F)F)c4)n3n2)CC1
How it was run: as §1

saracatinib = compound: CN1CCN(CCOc2cc(OC3CCOCC3)c3c(Nc4c(Cl)ccc5c4OCO5)ncnc3c2)CC1 [saracatinib]
How it was run: as §1

sotrastaurin = compound: CN1CCN(c2nc(C3=C(c4c[nH]c5ccccc45)C(=O)NC3=O)c3ccccc3n2)CC1 [sotrastaurin]
How it was run: as §1

Measured: log2 fold change

GNAS (UniProt Q5JWF2)
inactive: vemurafenib -0.036 | [1] -0.003 | barasertib 0.023 | [2] -0.034 | volasertib -0.019 | [3] 0.051 | [4] 0.12 | [5] -0.077 | saracatinib 0.014 | sotrastaurin 0.012

GLCCI1 (UniProt Q86VQ1)
inactive: vemurafenib -0.03 | [1] 0.071 | barasertib -0.018 | [2] -0.04 | volasertib 0.008 | [3] -0.067 | [4] -0.039 | [5] -0.042 | saracatinib -0.065 | sotrastaurin 0.022

GPAA1 (UniProt O43292)
inactive: vemurafenib 0.02 | [1] 0.025 | barasertib 0.045 | [2] 0.053 | volasertib -0.006 | [3] -0.014 | [4] -0.035 | [5] -0.026 | saracatinib 0.047 | sotrastaurin 0.044

GOLGA3 (UniProt Q08378)
inactive: vemurafenib -0.007 | [1] 0.008 | barasertib -0.004 | [2] 0.043 | volasertib 0.011 | [3] -0.003 | [4] 0.004 | [5] 0.006 | saracatinib 0.006 | sotrastaurin -0.001

GK (UniProt P32189)
inactive: vemurafenib 0.031 | [1] -0.002 | barasertib 0.031 | [2] 0.011 | volasertib 0.013 | [3] 0.062 | [4] -0.045 | [5] 0.005 | saracatinib 0.016 | sotrastaurin 0.013

GON4L (UniProt Q3T8J9)
inactive: vemurafenib 0 | [1] 0.054 | barasertib 0.097 | [2] -0.064 | volasertib -0.018 | [3] 0.02 | [4] -0.104 | [5] -0.027 | saracatinib -0.019 | sotrastaurin 0.016

GGA3 (UniProt Q9NZ52)
inactive: vemurafenib -0.109 | [1] 0.022 | barasertib -0.032 | [2] -0.063 | volasertib -0.027 | [3] 0.068 | [4] -0.023 | [5] 0 | saracatinib 0.007 | sotrastaurin 0.005

GMFG (UniProt O60234)
inactive: vemurafenib -0.057 | [1] -0.016 | barasertib 0.043 | [2] 0.009 | volasertib 0.016 | [3] 0.086 | [4] -0.01 | [5] 0.04 | saracatinib -0.013 | sotrastaurin -0.017

GPATCH11 (UniProt Q8N954)
inactive: vemurafenib -0.005 | [1] 0.001 | barasertib 0.018 | [2] 0.094 | volasertib 0.023 | [3] -0.036 | [4] -0.016 | [5] 0.03 | saracatinib 0.028 | sotrastaurin 0.015

GLRX3 (UniProt O76003)
inactive: vemurafenib -0.025 | [1] -0.007 | barasertib -0.008 | [2] 0.043 | volasertib 0.025 | [3] -0.039 | [4] 0.02 | [5] 0.015 | saracatinib -0.026 | sotrastaurin -0.035

GNAI2 (UniProt P04899)
inactive: vemurafenib -0.044 | [1] 0.009 | barasertib 0.021 | [2] -0.029 | volasertib -0.033 | [3] 0.007 | [4] 0.028 | [5] -0.019 | saracatinib -0.013 | sotrastaurin -0.033

GLRX2 (UniProt Q9NS18)
inactive: vemurafenib -0.099 | [1] 0.017 | barasertib 0.004 | [2] 0.097 | volasertib -0.025 | [3] 0.026 | [4] 0.132 | [5] -0.045 | saracatinib -0.03 | sotrastaurin 0.004

GIPC1 (UniProt O14908)
inactive: vemurafenib 0.066 | [1] 0.014 | barasertib -0.051 | [2] -0.005 | volasertib -0.032 | [3] -0.025 | [4] -0.059 | [5] 0.052 | saracatinib 0.011 | sotrastaurin 0.035

GLUD1 (UniProt P00367)
inactive: vemurafenib 0.003 | [1] -0.011 | barasertib -0.016 | [2] -0.009 | volasertib -0.177 | [3] 0.004 | [4] -0.019 | [5] 0.024 | saracatinib 0.065 | sotrastaurin 0.017

GMFB (UniProt P60983)
inactive: vemurafenib -0.079 | [1] -0.039 | barasertib 0.016 | [2] -0.023 | volasertib 0.045 | [3] 0.01 | [4] 0 | [5] 0.062 | saracatinib 0.002 | sotrastaurin -0.002

GNAQ (UniProt P50148)
inactive: vemurafenib -0.061 | [1] 0.007 | barasertib -0.008 | [2] -0.064 | volasertib -0.027 | [3] -0.053 | [4] -0.017 | [5] 0.024 | saracatinib 0.006 | sotrastaurin 0.1

GGNBP2 (UniProt Q9H3C7)
inactive: vemurafenib 0.045 | [1] 0.015 | barasertib -0.008 | [2] 0.019 | volasertib -0.024 | [3] 0.041 | [4] -0.1 | [5] 0.08 | saracatinib 0.03 | sotrastaurin 0.017

GPKOW (UniProt Q92917)
inactive: vemurafenib 0.02 | [1] 0.012 | barasertib -0.034 | [2] 0.02 | volasertib -0.035 | [3] 0.037 | [4] 0.102 | [5] -0.01 | saracatinib 0.016 | sotrastaurin 0.022

GMEB1 (UniProt Q9Y692)
inactive: vemurafenib -0.005 | [1] -0.01 | barasertib 0.044 | [2] 0.03 | volasertib -0.022 | [3] 0.025 | [4] -0.145 | [5] 0.029 | saracatinib 0.002 | sotrastaurin 0.001

GIT1 (UniProt Q9Y2X7)
inactive: vemurafenib -0.073 | [1] 0.028 | barasertib -0.008 | [2] -0.044 | volasertib -0.043 | [3] -0.007 | [4] 0.132 | [5] 0.046 | saracatinib 0 | sotrastaurin 0.012

GMNN (UniProt O75496)
inactive: vemurafenib -0.007 | [1] 0.01 | barasertib -0.002 | [2] -0.01 | volasertib 0.019 | [3] 0.006 | [4] -0.055 | [5] 0.004 | saracatinib 0 | sotrastaurin -0.024

GNPAT (UniProt O15228)
inactive: vemurafenib 0.005 | [1] 0.043 | barasertib 0.102 | [2] 0.018 | volasertib 0.023 | [3] -0.003 | [4] -0.061 | [5] -0.062 | saracatinib 0.039 | sotrastaurin -0.04

GLA (UniProt P06280)
inactive: vemurafenib -0.001 | [1] 0.014 | barasertib -0.069 | [2] -0.171 | volasertib -0.026 | [3] 0.013 | [4] -0.07 | [5] 0.042 | saracatinib 0.029 | sotrastaurin 0.004

GPR108 (UniProt Q9NPR9)
inactive: vemurafenib 0.001 | [1] -0.059 | barasertib -0.03 | [2] 0.01 | volasertib 0.03 | [3] 0.031 | [4] 0.057 | [5] 0.01 | saracatinib 0.092 | sotrastaurin 0.019

GPN3 isoform 2 (UniProt Q9UHW5)
inactive: vemurafenib -0.044 | [1] -0.001 | barasertib 0.001 | [2] 0.062 | volasertib -0.046 | [3] -0.027 | [4] -0.107 | [5] 0.099 | saracatinib -0.028 | sotrastaurin 0.046

GPD1L (UniProt Q8N335)
inactive: vemurafenib -0.036 | [1] 0.027 | barasertib 0.034 | [2] -0.097 | volasertib -0.022 | [3] 0.025 | [4] -0.009 | [5] -0.051 | saracatinib 0.017 | sotrastaurin -0.01

GMEB2 (UniProt Q9UKD1)
inactive: vemurafenib -0.004 | [1] 0.029 | barasertib 0.049 | [2] 0.078 | volasertib 0.039 | [3] -0.039 | [4] 0.058 | [5] 0.003 | saracatinib -0.003 | sotrastaurin -0.012

GPBP1L1 (UniProt Q9HC44)
inactive: vemurafenib -0.021 | [1] 0.106 | barasertib -0.012 | [2] 0.087 | volasertib -0.094 | [3] -0.031 | [4] -0.058 | [5] 0.048 | saracatinib 0.045 | sotrastaurin -0.064

GLO1 (UniProt Q04760)
inactive: vemurafenib -0.031 | [1] -0.015 | barasertib -0.018 | [2] -0.008 | volasertib 0.01 | [3] -0.016 | [4] -0.085 | [5] 0.037 | saracatinib 0 | sotrastaurin -0.031

GPATCH8 (UniProt Q9UKJ3)
inactive: vemurafenib 0.025 | [1] -0.035 | barasertib 0.044 | [2] 0.006 | volasertib 0.02 | [3] 0.024 | [4] 0.019 | [5] 0.023 | saracatinib 0.043 | sotrastaurin -0.017

2 successive entries out of the list so far:
GLO1 (UniProt Q04760)
inactive: vemurafenib -0.031 | [1] -0.015 | barasertib -0.018 | [2] -0.008 | volasertib 0.01 | [3] -0.016 | [4] -0.085 | [5] 0.037 | saracatinib 0 | sotrastaurin -0.031

GPATCH8 (UniProt Q9UKJ3)
inactive: vemurafenib 0.025 | [1] -0.035 | barasertib 0.044 | [2] 0.006 | volasertib 0.02 | [3] 0.024 | [4] 0.019 | [5] 0.023 | saracatinib 0.043 | sotrastaurin -0.017

More records:

GHDC (UniProt Q8N2G8)
inactive: vemurafenib 0.083 | [1] 0.043 | barasertib 0.035 | [2] 0.006 | volasertib -0.051 | [3] -0.04 | [4] -0.007 | [5] -0.109 | saracatinib 0.012 | sotrastaurin 0.029

GORASP2 isoform 3 (UniProt Q9H8Y8)
inactive: vemurafenib 0.023 | [1] 0.025 | barasertib 0.076 | [2] 0.021 | volasertib -0.03 | [3] 0.01 | [4] -0.198 | [5] 0.129 | saracatinib 0.031 | sotrastaurin -0.019

GNA13 (UniProt Q14344)
inactive: vemurafenib 0.036 | [1] 0.012 | barasertib 0.062 | [2] 0.048 | volasertib -0.025 | [3] -0.02 | [4] -0.066 | [5] 0.057 | saracatinib 0.021 | sotrastaurin 0.004
